# Test results from PMC7226164.
# Molecular target: IbWRKY2 fused to the N-terminal region of YFP (pSPYNE-IbWRKY2-nYFP) (sweetpotato (Ipomoea batatas))
# Test: split reporter; BiFC: nYFP and cYFP fusions (pSPYNE, pSPYCE) in N. benthamiana leaves injected with A. tumefaciens; confocal microscopy 24-48 h after injection
binder,measurement,value
"AtVQ4 fused to the C-terminal region of YFP (pSPYCE, AtVQ4-cYFP) (protein, UniProt Q5M750 1-247) MENSPRYREATNLIPSPRCHNSNNSCGMSSSSESNKPPTTPTRHVTTRSESGNPYPTTFVQADTSSFKQVVQMLTGSAERPKHGSSLKPNPTHHQPDPRSTPSSFSIPPIKAVPNKKQSSSSASGFRLYERRNSMKNLKINPLNPVFNPVNSAFSPRKPEILSPSILDFPSLVLSPVTPLIPDPFDRSGSSNQSPNELAAEEKAMKERGFYLHPSPATTPMDPEPRLLPLFPVTSPRVSGSSSASTS",binding,binds

# No constants are given. Whether binding was seen depends on the method and setting. Binding seen in cells or lysates may run through a third protein. Binding calls can cover weak binding; strength is not graded here. Tags and fused reporters may be left off the sequences shown.
